Laboratory results: the supplement of paper PMC4962491
Structures can show the parent of a compound that is named as a salt. ± gives the standard deviation of the averaged measurements. Only a part is listed here, and it is no random draw. This data set is noisy: repeats of one test often differ as much as different tests do. Numbered stars: 1 amine (or outer) side, 2 acyl side, 3 side chain; on linkers, the order of the positions; unused ones are H or OH. Bridge positions count the residues as written; N and C are the ends. Square brackets hold non-standard residues; d marks the D form. Peptide text beside a SMILES is read from it. * marks the point of attachment. ξ: configuration not given here. Ileψ(thiazoline)Cys = CC[C@H](C)[C@H](N)C1=N[C@H](C(=O)*)CS1; X4 = O=C([C@H](N[*:1])C1CCC(O)CC1)[*:2]; X6 = O=C(C(N[*:1])C1CCC(O)C(Cl)C1)[*:2]; X5 = O=C(C(N[*:1])C1CCC(O)CC1)[*:2]; aThr = C[C@H](O)[C@H](N)C(=O)O; dOrn = NCCC[C@@H](N)C(=O)O; X3 = CCC/C=C\C=C/C(=O)*; ξN = NC(=O)CC(N)C(=O)O

System: FaDu
Assay: mitochondrial oxygen consumption rate normalised to cell number, Z score over the library; higher = higher oxygen consumption (negative = OCR reduction)
Details: treatment time 24 h, assay medium: 5 mM galactose, 5 mM pyruvate, 4 mM glutamine
Description: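 Primary screen: FaDu cells were incubated 24 h with Pharmakon 1600 / TDI oncology set compounds at 2 or 10 uM. Mitochondrial-specific OCR (basal minus 2 uM antimycin A) was measured on a Seahorse XF96 in assay medium with 5 mM galactose, 5 mM pyruvate and 4 mM glutamine, then corrected for Hoechst cell number and expressed as a Z score […]. Compounds that cut cell number by >66% were excluded. Two repeats.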

| Compound | mitochondrial oxygen consumption rate normalised (2 µM) | mitochondrial oxygen consumption rate normalised (10 µM) |
| --- | --- | --- |
| O=C(C1CCCCC1)N1CC(=O)N2CCc3ccccc3C2C1 (centres undefined) | 0.0217 ± 0.33 |  |
| CC(C)(C#N)c1cc(Cn2cncn2)cc(C(C)(C)C#N)c1 [Anastrozole] | 0.686 ± 0.088 |  |
| Oc1c(I)cc(Cl)c2cccnc12 | 0.642 ± 0.069 |  |
| CN(C)CCOC(C)(c1ccccc1)c1ccccn1 (centres undefined) | -0.975 ± 0.29 |  |
| C=CCNC(N)=S | 0.478 ± 1.5 |  |
| CC(=O)c1ccc2c(c1)N(CCCN(C)C)c1ccccc1S2 | -0.211 ± 0.39 |  |
| Nc1ccn([C@H]2CC[C@@H](CO)O2)c(=O)n1 | 0.894 ± 0.32 |  |
| CN(C(=O)C(Cl)Cl)c1ccc(OC(=O)c2ccco2)cc1 | -0.0678 ± 0.63 |  |
| COc1cc(/C=C/C(N)=O)cc(OC)c1OC | -0.512 ± 0.73 |  |
| CNC[C@H](O)c1ccc(O)c(O)c1 | 0.116 ± 0.45 |  |
| COc1ccc(OC)c(C(O)CNC(=O)CN)c1 (centres undefined) | 0.73 ± 0.71 | 0.934 ± 0.11 |
| CC(S)C(=O)NCC(=O)O (centres undefined) | 0.0784 ± 0.56 |  |
| CN1CCN(CCCN2c3ccccc3Sc3ccc(C(F)(F)F)cc32)CC1 | 0.346 ± 0.43 |  |
| CC[C@H](C)[C@H](N)C1=N[C@H](C(=O)N[C@@H](CC(C)C)C(=O)N[C@H](CCC(=O)O)C(=O)N[C@H](C(=O)N[C@H]2CCCCNC(=O)[C@H](CC(N)=O)NC(=O)[C@@H](CC(=O)O)NC(=O)[C@H](Cc3cnc[nH]3)NC(=O)[C@@H](Cc3ccccc3)NC(=O)[C@H]([C@@H](C)CC)NC(=O)[C@@H](CCCN)NC2=O)[C@@H](C)CC)CS1 ({Ileψ(thiazoline)Cys}-L[dE]IK[dOrn]I[dF]H[dD]N; lactam 4-C) | 0.371 ± 0.25 |  |
| CC(=O)NS(=O)(=O)c1ccc(NC(=O)c2ccccc2C(=O)O)cc1 | 0.467 ± 0.3 |  |
| CCc1nc(N)nc(N)c1-c1ccc(Cl)cc1 | -0.408 ± 0.24 |  |
| CC(=O)[C@@]1(O)CC[C@H]2[C@@H]3C[C@H](C)C4=CC(=O)C=C[C@]4(C)[C@@]3(F)[C@@H](O)C[C@@]21C | -0.612 ± 0.62 |  |
| CN1CC(=O)N2[C@H](c3ccc4c(c3)OCO4)c3[nH]c4ccccc4c3C[C@@H]2C1=O | 0.635 ± 0.72 |  |
| C1CCC(C(CC2CCCCN2)C2CCCCC2)CC1 (centres undefined) | 1.16 ± 0.64 |  |

| Compound | mitochondrial oxygen consumption rate normalised (2 µM) | mitochondrial oxygen consumption rate normalised (10 µM) |
| --- | --- | --- |
| CCC/C=C\C=C/C(=O)N[C@@H](CC(N)=O)C(=O)NC(CC(N)=O)C(=O)N[C@@H](C(=O)N[C@H](CCCN)C(=O)N[C@@H](C(=O)N[C@@H](C(=O)N[C@@H](C(=O)N[C@H](C(=O)N[C@@H](Cc1ccccc1)C(=O)N[C@H](CCCN)C(=O)NC(C(=O)N[C@H](C(=O)NC(C(=O)NCC(=O)N[C@@H](CC(C)C)C(=O)N[C@H](C)C(=O)NC(C(=O)O)C1CCC(O)C(Cl)C1)C1CCC(O)CC1)[C@H](C)O)C1CCC(O)CC1)[C@H](C)O)C1CCC(O)CC1)C1CCC(O)CC1)[C@H](C)O)C1CCC(O)CC1 (some centres undefined) [RAMOPLANIN [A2 shown; 2mM]] (X3-N[ξN][X4][dOrn][dT][X4][X4][aThr]F[dOrn][X5][aThr][X5]GL[dA][X6]-OH) | 0.635 ± 0.83 |  |
| COc1cc(C(=O)NCc2ccc(OCCN(C)C)cc2)cc(OC)c1OC | 0.576 ± 0.061 |  |
| Cc1cc(C(C)(C)C)c(O)c(C(C)(C)C)c1 | -0.595 ± 0.37 |  |
| C/C(=C\c1csc(C)n1)[C@@H]1C[C@@H]2O[C@]2(C)CCC[C@H](C)[C@H](O)[C@@H](C)C(=O)C(C)(C)[C@@H](O)CC(=O)N1 [Ixabepilone] | 0.498 ± 0.25 |  |
| CCOc1nc2cccc(C(=O)OCc3oc(=O)oc3C)c2n1Cc1ccc(-c2ccccc2-c2noc(=O)[nH]2)cc1 | -0.893 ± 0.16 |  |
| O=C(O)c1cn(C2CC2)c2cc(N3CCNCC3)c(F)cc2c1=O | 0.674 ± 1.6 |  |
| CCOC(=O)COc1ccc2c(=O)cc(-c3ccccc3)oc2c1 | -0.73 ± 0.13 |  |
| Cc1ccc(NC(=O)c2ccc(CN3CCN(C)CC3)cc2)cc1Nc1nccc(-c2cccnc2)n1 | 0.691 ± 1 |  |
| Cc1ccc(NC(=O)c2ccc(CN3CCN(C)CC3)cc2)cc1Nc1nccc(-c2cccnc2)n1 [Imatinib Mesylate] | 0.127 ± 0.32 |  |
| O=C(O)C(=O)O.[NH-][C@@H]1CCCC[C@H]1[NH-].[Pt+2] | 0.333 ± 0.048 |  |
| O=C(O)C(=O)O.[NH-][C@@H]1CCCC[C@H]1[NH-].[Pt+2] [Oxaliplatin] | 0.906 ± 0.32 |  |
| C[C@](N)(Cc1ccc(O)c(O)c1)C(=O)O | -0.0933 ± 0.61 |  |
| Clc1ccc(C(Cn2ccnc2)OCc2ccsc2Cl)c(Cl)c1 (centres undefined) | 0.354 ± 0.2 |  |
| C[C@H]1c2cccc(O)c2C(=O)C2=C(O)[C@]3(O)C(=O)C(C(N)=O)=C(O)[C@@H](N(C)C)[C@@H]3[C@@H](O)[C@@H]21 | -0.593 ± 0.25 |  |
| O=C1/C(=C/c2cccs2)CCC/C1=C\c1cccs1 | -0.106 ± 0.52 |  |
| CC(=O)NC(Cc1ccccc1)C(=O)O (centres undefined) | 0.547 ± 1.5 | 0.121 ± 0.33 |
| COc1ccc(O)cc1 | 1.11 ± 0.24 |  |
| CCCCCCCCCCCCCCCCCCCCCCO | -0.677 ± 0.55 |  |

Eight entries from above, as comma-separated lines:
Compound,mitochondrial oxygen consumption rate normalised (2 µM),mitochondrial oxygen consumption rate normalised (10 µM)
O=C(O)c1cn(C2CC2)c2cc(N3CCNCC3)c(F)cc2c1=O,0.674 ± 1.6,
CCOC(=O)COc1ccc2c(=O)cc(-c3ccccc3)oc2c1,-0.73 ± 0.13,
Cc1ccc(NC(=O)c2ccc(CN3CCN(C)CC3)cc2)cc1Nc1nccc(-c2cccnc2)n1,0.691 ± 1,
O=C(O)C(=O)O.[NH-][C@@H]1CCCC[C@H]1[NH-].[Pt+2],0.333 ± 0.048,
C[C@](N)(Cc1ccc(O)c(O)c1)C(=O)O,-0.0933 ± 0.61,
C[C@H]1c2cccc(O)c2C(=O)C2=C(O)[C@]3(O)C(=O)C(C(N)=O)=C(O)[C@@H](N(C)C)[C@@H]3[C@@H](O)[C@@H]21,-0.593 ± 0.25,
O=C1/C(=C/c2cccs2)CCC/C1=C\c1cccs1,-0.106 ± 0.52,
CCCCCCCCCCCCCCCCCCCCCCO,-0.677 ± 0.55,
